From article PMC9663165, “Human immunomodulatory ligand B7-1 mediates synaptic remodeling via the p75 neurotrophin receptor” (The Journal of Clinical Investigation, 2022)
These are yes or no findings as the source states them, for the method shown. Binding calls can cover weak binding; strength is not graded here.

By UniProt entry, the sequences of proteins in these tests, tags left out. Where a name states a change or a piece, a line headed by the entry shows the natural chain unless it says otherwise. Residues count along the entry.
UniProt P08138: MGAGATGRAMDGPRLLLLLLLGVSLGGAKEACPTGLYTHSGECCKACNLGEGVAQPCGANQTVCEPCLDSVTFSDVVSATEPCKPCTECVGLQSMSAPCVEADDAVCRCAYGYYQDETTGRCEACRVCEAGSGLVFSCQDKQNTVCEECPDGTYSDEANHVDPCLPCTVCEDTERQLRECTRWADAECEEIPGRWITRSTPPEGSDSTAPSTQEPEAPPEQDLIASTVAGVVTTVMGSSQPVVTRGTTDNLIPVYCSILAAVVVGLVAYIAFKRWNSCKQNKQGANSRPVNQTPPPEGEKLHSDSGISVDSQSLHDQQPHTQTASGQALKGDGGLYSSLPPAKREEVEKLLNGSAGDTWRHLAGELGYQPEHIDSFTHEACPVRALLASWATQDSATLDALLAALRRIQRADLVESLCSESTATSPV
UniProt P10586, residues 30-1907: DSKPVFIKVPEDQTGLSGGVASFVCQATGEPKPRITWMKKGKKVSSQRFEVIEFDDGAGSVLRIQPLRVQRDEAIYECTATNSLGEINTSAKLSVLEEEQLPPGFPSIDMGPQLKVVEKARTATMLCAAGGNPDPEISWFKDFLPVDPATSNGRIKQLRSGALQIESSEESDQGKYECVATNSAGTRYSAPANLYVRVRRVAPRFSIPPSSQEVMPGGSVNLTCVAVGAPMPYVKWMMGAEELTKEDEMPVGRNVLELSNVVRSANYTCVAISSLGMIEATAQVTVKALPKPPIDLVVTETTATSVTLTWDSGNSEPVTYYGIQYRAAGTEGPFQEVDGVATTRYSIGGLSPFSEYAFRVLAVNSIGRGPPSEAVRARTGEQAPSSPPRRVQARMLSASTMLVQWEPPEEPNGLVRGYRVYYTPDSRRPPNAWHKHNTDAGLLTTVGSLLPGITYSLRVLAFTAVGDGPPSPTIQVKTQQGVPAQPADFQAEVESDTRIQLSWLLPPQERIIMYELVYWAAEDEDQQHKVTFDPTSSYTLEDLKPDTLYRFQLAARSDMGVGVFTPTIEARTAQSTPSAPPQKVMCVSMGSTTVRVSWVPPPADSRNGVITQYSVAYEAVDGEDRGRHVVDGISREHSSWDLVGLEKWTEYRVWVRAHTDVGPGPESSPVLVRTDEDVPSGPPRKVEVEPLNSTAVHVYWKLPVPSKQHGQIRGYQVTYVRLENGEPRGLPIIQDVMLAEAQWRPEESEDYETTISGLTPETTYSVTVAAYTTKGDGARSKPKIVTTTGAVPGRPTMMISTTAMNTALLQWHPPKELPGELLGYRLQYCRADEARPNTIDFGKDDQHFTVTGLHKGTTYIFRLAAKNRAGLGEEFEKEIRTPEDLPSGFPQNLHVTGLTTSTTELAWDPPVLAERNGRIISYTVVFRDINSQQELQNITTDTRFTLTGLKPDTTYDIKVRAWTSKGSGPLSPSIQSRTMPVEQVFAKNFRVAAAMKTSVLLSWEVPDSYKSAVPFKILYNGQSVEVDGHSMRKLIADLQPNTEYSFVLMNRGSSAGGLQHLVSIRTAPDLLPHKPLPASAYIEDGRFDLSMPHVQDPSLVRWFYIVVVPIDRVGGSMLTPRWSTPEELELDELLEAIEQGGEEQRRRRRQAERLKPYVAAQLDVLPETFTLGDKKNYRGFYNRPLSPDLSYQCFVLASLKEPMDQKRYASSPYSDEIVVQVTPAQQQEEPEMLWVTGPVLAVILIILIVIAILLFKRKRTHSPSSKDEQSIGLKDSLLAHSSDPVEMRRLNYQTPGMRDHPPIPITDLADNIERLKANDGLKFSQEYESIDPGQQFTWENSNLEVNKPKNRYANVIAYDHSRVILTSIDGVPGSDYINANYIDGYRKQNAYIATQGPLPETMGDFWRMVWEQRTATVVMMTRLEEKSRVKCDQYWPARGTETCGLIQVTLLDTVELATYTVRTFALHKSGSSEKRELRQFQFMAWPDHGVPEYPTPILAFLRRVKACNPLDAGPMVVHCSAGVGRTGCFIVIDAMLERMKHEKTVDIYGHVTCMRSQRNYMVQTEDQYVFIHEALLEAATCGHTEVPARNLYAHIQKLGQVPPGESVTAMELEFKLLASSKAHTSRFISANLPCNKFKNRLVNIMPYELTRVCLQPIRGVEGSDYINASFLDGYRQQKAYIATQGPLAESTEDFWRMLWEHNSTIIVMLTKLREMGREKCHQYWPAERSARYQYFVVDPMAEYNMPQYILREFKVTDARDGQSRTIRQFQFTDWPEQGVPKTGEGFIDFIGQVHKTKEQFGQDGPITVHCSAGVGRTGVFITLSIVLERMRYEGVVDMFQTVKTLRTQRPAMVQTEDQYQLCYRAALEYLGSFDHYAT

Target: p75^NTR E147D-GFP (human) (UniProt P08138)
Test: flow cytometry on cells; cell-cell conjugates: cells expressing p75NTR-GFP point mutants against cells expressing PTPRF-mCherry

In the case of “protein tyrosine phosphatase receptor type F (PTPRF) (from UniProt P10586 30-1907)”, the binding is reported as “binds”.
